Laboratory results: PubChem BioAssay AID1259308 (NCATS, 2017)
The whole screen tested about 59,000 reagents; this is an unselected part. Of all reagents, about 1,510 (2.6%) got an active call. 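Calls use total luciferase alone and ignore viability, so some active siRNAs may act by altering cell number.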 The numbers tell different reagents against one gene apart.

Screen: 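Candidate targets for better recombinant protein yield in mammalian cells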 (primary screen)
Cell system: human HEK293 embryonic kidney cells stably expressing firefly luciferase (HEK-CMV-Luc2-Hygro)
Knock-down reagent: single siRNA against human genes, 0.8 pmol siRNA per well
Timing: 72 h
Read-out: 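Reporter luminescence and viable-cell signal on separate replicate plates, given as percent of non-targeting control and median/MAD z-scores, plus per-cell luciferase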
Reading the numbers: total luciferase, z-score and total luciferase, % of control: higher = more reporter protein produced; luciferase per cell, z-score: higher = more reporter output per viable cell; viable cells, % of control: higher = more viable cells
Hit rule: 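An siRNA counts as active if its total luciferase robust z-score exceeds 3; genes with two or more such siRNAs out of three were retested with fresh siRNAs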
Calls: active = raised luciferase; inactive = no rise

| target | siRNA no. | total luciferase, z-score | total luciferase, % of control | luciferase per cell, z-score | viable cells, % of control | outcome |
| --- | --- | --- | --- | --- | --- | --- |
| PCED1CP | 1 | -0.891 | 64.2 | -0.502 | 81.8 | inactive |
| PCED1CP | 2 | -0.137 | 79.2 | 0.357 | 80.5 | inactive |
| PCED1CP | 3 | -0.471 | 72.5 | -0.626 | 95.6 | inactive |
| GFUS | 1 | 0.688 | 95.6 | 0.779 | 87 | inactive |
| GFUS | 2 | -0.344 | 75 | -0.502 | 95.7 | inactive |
| GFUS | 3 | 1.3 | 108 | 0.248 | 113 | inactive |
| NXT1 | 1 | -2.51 | 32 | -3.04 | 79.5 | inactive |
| NXT1 | 2 | 1.17 | 105 | 0.719 | 97.3 | inactive |
| NXT1 | 3 | 0.689 | 95.6 | 1.16 | 78.8 | inactive |
| GSDMC | 1 | -1.36 | 54.9 | -0.726 | 74.2 | inactive |
| GSDMC | 2 | -0.942 | 63.1 | -1.02 | 92.3 | inactive |
| GSDMC | 3 | -2.13 | 39.5 | -1.98 | 74.3 | inactive |
| ALDH7A1 | 1 | 1.84 | 118 | 1.79 | 82.7 | inactive |
| ALDH7A1 | 2 | -1.79 | 46.2 | -1.34 | 73.5 | inactive |
| ALDH7A1 | 3 | 0.368 | 89.2 | -0.115 | 103 | inactive |
| MON1B | 1 | 3.08 | 143 | 1.66 | 103 | active |
| MON1B | 2 | -0.235 | 77.2 | 0.0834 | 84.4 | inactive |
| MON1B | 3 | -0.12 | 79.5 | 0.257 | 83 | inactive |
| CCDC125 | 1 | 0.94 | 101 | 0.792 | 91.2 | inactive |
| CCDC125 | 2 | -0.271 | 76.5 | 0.018 | 85.1 | inactive |
| CCDC125 | 3 | 1.25 | 107 | 1.42 | 82.2 | inactive |
| FZD2 | 1 | 0.237 | 86.6 | 0.444 | 86.1 | inactive |
| FZD2 | 2 | 0.794 | 97.7 | 0.783 | 88.8 | inactive |
| FZD2 | 3 | -2.04 | 41.4 | -2.34 | 85.7 | inactive |
| MYOM2 | 1 | -0.158 | 78.7 | 0.0946 | 85.8 | inactive |
| MYOM2 | 2 | 1.83 | 118 | 1.55 | 87.8 | inactive |
| MYOM2 | 3 | 1.62 | 114 | 1.43 | 87.4 | inactive |
| LOC646999 | 1 | -0.321 | 75.5 | 0.331 | 77.3 | inactive |
| LOC646999 | 2 | 0.373 | 89.3 | 0.211 | 94.4 | inactive |
| LOC646999 | 3 | 0.664 | 95.1 | 0.474 | 93.8 | inactive |
| AKT1 | 1 | -1.23 | 57.5 | -0.374 | 70.9 | inactive |
| AKT1 | 2 | 2.11 | 124 | 1.08 | 104 | inactive |
| AKT1 | 3 | -0.35 | 74.9 | 0.394 | 75.5 | inactive |
| SLC25A13 | 1 | 0.0278 | 82.4 | 0.583 | 79 | inactive |
| SLC25A13 | 2 | 0.535 | 92.5 | -0.0958 | 106 | inactive |
| SLC25A13 | 3 | -0.811 | 65.8 | -0.634 | 86.8 | inactive |
| EML3 | 1 | -0.289 | 76.1 | 0.514 | 74.3 | inactive |
| EML3 | 2 | -1.12 | 59.7 | -0.973 | 86.2 | inactive |
| EML3 | 3 | -0.986 | 62.3 | -0.598 | 81.5 | inactive |
| FLJ32255 | 1 | 0.0796 | 83.5 | -0.11 | 96 | inactive |
| FLJ32255 | 2 | -0.121 | 79.5 | -0.119 | 91.6 | inactive |
| FLJ32255 | 3 | -0.116 | 79.6 | 0.986 | 68.6 | inactive |
| RBMS1 | 1 | -2.04 | 41.3 | -2.48 | 88.7 | inactive |
| RBMS1 | 2 | 0.323 | 88.3 | 0.511 | 86.3 | inactive |
| RBMS1 | 3 | -0.583 | 70.3 | -0.498 | 89.6 | inactive |
| NUP54 | 1 | -1.72 | 47.6 | -1.4 | 76.9 | inactive |
| NUP54 | 2 | 0.558 | 93 | 0.152 | 99.8 | inactive |
| NUP54 | 3 | -1.19 | 58.2 | -0.53 | 74.8 | inactive |
| KIR3DP1 | 1 | 0.105 | 84 | 1.08 | 70.6 | inactive |
| KIR3DP1 | 2 | -0.465 | 72.6 | -0.652 | 96.4 | inactive |
| KIR3DP1 | 3 | 0.136 | 84.6 | 1.68 | 60.8 | inactive |
| CEACAM19 | 1 | 0.621 | 94.2 | -0.0821 | 108 | inactive |
| CEACAM19 | 2 | 1.49 | 112 | 1.75 | 78.7 | inactive |
| CEACAM19 | 3 | 0.263 | 87.1 | 0.0757 | 95.4 | inactive |
| TRIM35 | 1 | 2.89 | 139 | 1.76 | 98.1 | inactive |
| TRIM35 | 2 | -1.74 | 47.3 | 0.051 | 52.2 | inactive |
| TRIM35 | 3 | -0.601 | 69.9 | -0.908 | 99.2 | inactive |

Part of the list above, set out differently:
target,siRNA no.,"total luciferase, z-score","total luciferase, % of control","luciferase per cell, z-score","viable cells, % of control",outcome
GFUS,1,0.688,95.6,0.779,87,inactive
GFUS,2,-0.344,75,-0.502,95.7,inactive
GFUS,3,1.3,108,0.248,113,inactive
NXT1,1,-2.51,32,-3.04,79.5,inactive
NXT1,2,1.17,105,0.719,97.3,inactive
NXT1,3,0.689,95.6,1.16,78.8,inactive
